Reference: publication PMC12266347

Chains of the proteins cited; added tags and fusions are not shown.
UniProt Q07955: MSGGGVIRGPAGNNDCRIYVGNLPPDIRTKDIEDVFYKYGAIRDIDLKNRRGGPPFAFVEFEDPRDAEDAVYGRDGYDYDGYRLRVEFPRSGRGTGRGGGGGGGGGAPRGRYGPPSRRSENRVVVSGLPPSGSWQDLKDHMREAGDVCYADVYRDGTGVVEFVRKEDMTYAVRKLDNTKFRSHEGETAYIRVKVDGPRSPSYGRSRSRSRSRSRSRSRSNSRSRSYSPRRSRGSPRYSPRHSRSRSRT
UniProt P67809: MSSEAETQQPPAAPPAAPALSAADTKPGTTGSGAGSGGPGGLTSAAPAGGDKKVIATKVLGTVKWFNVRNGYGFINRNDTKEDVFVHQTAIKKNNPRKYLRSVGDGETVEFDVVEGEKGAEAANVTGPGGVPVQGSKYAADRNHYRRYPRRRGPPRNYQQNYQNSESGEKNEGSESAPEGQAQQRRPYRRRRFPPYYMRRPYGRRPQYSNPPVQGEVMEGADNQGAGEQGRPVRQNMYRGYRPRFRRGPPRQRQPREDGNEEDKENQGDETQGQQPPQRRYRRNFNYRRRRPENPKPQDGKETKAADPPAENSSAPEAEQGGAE
UniProt A6NMY6: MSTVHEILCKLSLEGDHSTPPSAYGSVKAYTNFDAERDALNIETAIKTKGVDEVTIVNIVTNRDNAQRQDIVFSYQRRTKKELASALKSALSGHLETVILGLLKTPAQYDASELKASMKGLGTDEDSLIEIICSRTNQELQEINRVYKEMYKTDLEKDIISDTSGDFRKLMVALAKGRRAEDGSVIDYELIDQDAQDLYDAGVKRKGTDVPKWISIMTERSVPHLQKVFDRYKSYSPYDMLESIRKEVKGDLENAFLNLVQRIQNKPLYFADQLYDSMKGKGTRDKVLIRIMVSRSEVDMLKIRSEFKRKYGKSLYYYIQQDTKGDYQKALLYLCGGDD
UniProt P11586: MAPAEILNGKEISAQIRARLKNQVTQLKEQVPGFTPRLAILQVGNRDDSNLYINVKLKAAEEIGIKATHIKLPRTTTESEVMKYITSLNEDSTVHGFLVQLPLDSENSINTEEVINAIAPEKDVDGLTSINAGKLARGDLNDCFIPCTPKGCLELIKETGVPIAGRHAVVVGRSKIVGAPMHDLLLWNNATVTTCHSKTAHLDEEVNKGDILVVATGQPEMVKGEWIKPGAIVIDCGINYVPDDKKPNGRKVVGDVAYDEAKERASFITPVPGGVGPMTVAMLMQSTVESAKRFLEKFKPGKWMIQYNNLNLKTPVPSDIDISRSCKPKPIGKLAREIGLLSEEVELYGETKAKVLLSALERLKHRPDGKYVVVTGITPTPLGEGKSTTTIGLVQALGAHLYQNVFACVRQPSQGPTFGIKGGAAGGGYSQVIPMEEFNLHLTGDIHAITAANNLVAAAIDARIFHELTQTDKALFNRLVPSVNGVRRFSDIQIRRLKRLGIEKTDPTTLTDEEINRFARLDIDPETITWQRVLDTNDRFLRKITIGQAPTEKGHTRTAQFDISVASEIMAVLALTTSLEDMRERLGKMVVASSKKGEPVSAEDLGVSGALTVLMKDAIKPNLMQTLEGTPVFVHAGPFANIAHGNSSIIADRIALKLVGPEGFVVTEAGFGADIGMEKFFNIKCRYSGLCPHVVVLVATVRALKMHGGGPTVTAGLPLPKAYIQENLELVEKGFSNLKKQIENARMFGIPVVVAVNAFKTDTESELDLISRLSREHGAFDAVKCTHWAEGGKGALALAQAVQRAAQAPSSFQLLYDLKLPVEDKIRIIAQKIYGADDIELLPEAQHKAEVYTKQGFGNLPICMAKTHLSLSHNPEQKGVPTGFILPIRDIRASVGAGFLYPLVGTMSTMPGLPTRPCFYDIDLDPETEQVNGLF

Each substance was assayed against T1, BioID2-CCDC43 fusion protein (Myc-BioID2-CCDC43; coiled-coil domain containing protein 43) (human) (UniProt Q96MW1) (assay: proximity labelling; BioID2: Myc-BioID2-CCDC43 transiently expressed in HEK293-T cells, 50 uM biotin for 17 h, lysis, streptavidin bead pull-down of biotinylated proteins, on-bead digestion, nLC-MS/MS; control Myc-BioID2 alone (empty vector); hits filtered at log2 fold change 0.5; two biological replicates, three technical acquisitions each).
T1 sequence: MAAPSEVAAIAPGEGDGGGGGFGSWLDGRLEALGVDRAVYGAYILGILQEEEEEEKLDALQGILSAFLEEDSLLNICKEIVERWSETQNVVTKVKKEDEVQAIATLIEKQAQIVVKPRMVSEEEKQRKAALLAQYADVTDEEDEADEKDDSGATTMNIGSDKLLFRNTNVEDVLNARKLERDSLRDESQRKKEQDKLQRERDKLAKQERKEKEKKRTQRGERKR

binding	Substance
binds	SRSF1 (from UniProt Q07955 1-248)
binds	YBX1 (from UniProt P67809 1-324)
binds	ANXA2P2 (from UniProt A6NMY6 1-339)
binds	MTHFD1 (from UniProt P11586 1-935)

Results are given in words; binding and its absence hold for the method and conditions named. Binding seen in cells or lysates may run through a third protein. These calls come from enrichment with a bait or labelling near it, and not all partners need be listed. Where a sequence is shown, tags or fusion partners need not be part of it.
